Results deposited as PubChem BioAssay AID504764 (Drosophila RNAi Screening Center, 2011)

Assay: 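Genome-wide screen for regulators of Notch-driven gene expression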 (primary screen)
System: Drosophila Kc167 cells
Reagents: long dsRNA against Drosophila genes
Timing: about 5 days (4 days dsRNA, then 24 h after transfection)
Challenge: transfection of constitutively active membrane-tethered Notch lacking the extracellular domain, read 24 h later
Measured: 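Firefly luciferase from an E(spl)m3 reporter with active Notch, plus control-promoter and uninduced reporter wells for normalisation; unnormalised counts, duplicate wells a and b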
Reading the numbers: induced reporter light, run 1, well a and induced reporter light, run 1, well b: higher = more light from the Notch target reporter with active Notch; control promoter light, run 1, well a and control promoter light, run 1, well b: higher = more light from the viral control promoter (cell number, transfection, viability); uninduced reporter light, run 1, well a: higher = more light from the Notch target reporter without active Notch
Active means: 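Hit if the duplicate-averaged log2 ratio of induced to control-promoter light gives a plate-wise z beyond ±2, or induced to uninduced beyond ±1.8; weak-control or discordant-duplicate wells dropped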
Meaning of the calls: active = modifier hit (raised or lowered Notch signal); inactive = not a hit
The deposit covers about 22,000 reagents; this is a random part of those with a known target gene and a result. Over the whole deposit, 403 (1.9%) are marked active. 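Unnormalised raw counts per well; ratio z-scores behind the hit calls and whether each hit raises or lowers signal are not deposited.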 A number with no mark means an inactive call. A plus sign joins genes that one reagent is predicted to hit. The record does not give: the amount of reagent.

gene knocked down	amplicon	induced reporter light, run 1, well a	induced reporter light, run 1, well b	control promoter light, run 1, well a	control promoter light, run 1, well b	uninduced reporter light, run 1, well a
Mst87F (Male-specific RNA 87F)	DRSC16747	1.93e5	1.74e5	1.82e5	1.88e5	15225
Uhg2 + snoRNA:Me18S-G1620 + snoRNA:U14:30Ea	DRSC01100	92330	84040	1.08e5	1.17e5	5480
Atg18b (Autophagy-related 18b)	DRSC03108	1.07e5	1.08e5	83935	82890	6650
ksh (kish)	DRSC19554	84320	1.05e5	1.19e5	1.17e5	11705
mamo (maternal gene required for meiosis)	DRSC19370	64980	65210	74655	73020	9330
AnxB11 (Annexin B11)	DRSC19331	1.36e5	1.18e5	1.87e5	1.50e5	10820
exu (exuperantia)	DRSC07615	1.19e5	99085	2.30e5	2.43e5	11080
Srg1 (Sting-regulated gene 1)	DRSC14640	1.84e5	1.36e5	2.14e5	1.98e5	12765
CG42362 + CG42363	DRSC04265	2.45e5	2.28e5	2.00e5	2.27e5	15820
MFS1 (Major Facilitator Superfamily Transporter 1)	DRSC04115	2.12e5	2.16e5	1.89e5	1.74e5	14670
CG3124	DRSC04339	25690	24270	20690	28780	7338

Part of the list above, reformatted:
| gene knocked down | amplicon | induced reporter light, run 1, well a | induced reporter light, run 1, well b | control promoter light, run 1, well a | control promoter light, run 1, well b | uninduced reporter light, run 1, well a |
| --- | --- | --- | --- | --- | --- | --- |
| Mst87F (Male-specific RNA 87F) | DRSC16747 | 1.93e5 | 1.74e5 | 1.82e5 | 1.88e5 | 15225 |
| Uhg2 + snoRNA:Me18S-G1620 + snoRNA:U14:30Ea | DRSC01100 | 92330 | 84040 | 1.08e5 | 1.17e5 | 5480 |
| Atg18b (Autophagy-related 18b) | DRSC03108 | 1.07e5 | 1.08e5 | 83935 | 82890 | 6650 |
| ksh (kish) | DRSC19554 | 84320 | 1.05e5 | 1.19e5 | 1.17e5 | 11705 |
| mamo (maternal gene required for meiosis) | DRSC19370 | 64980 | 65210 | 74655 | 73020 | 9330 |

Further reagents follow.
gene knocked down	amplicon	induced reporter light, run 1, well a	induced reporter light, run 1, well b	control promoter light, run 1, well a	control promoter light, run 1, well b	uninduced reporter light, run 1, well a
Cog2 (Component of oligomeric golgi complex 2)	DRSC16987	2.05e5	2.28e5	2.10e5	2.12e5	19290
san (separation anxiety)	DRSC07695	1.13e5	91520	1.18e5	1.18e5	11200
CG7656	DRSC10900	1.80e5	1.63e5	1.65e5	2.13e5	13835
CG1304	DRSC20494	88535	81660	1.29e5	1.44e5	11175
Hyccin	DRSC06983	99950	1.06e5	2.05e5	1.84e5	8550
wrm1 (wurmchen 1)	DRSC11007	78385	97960	38665	16340	9390
CtsL4 (Cathepsin L4)	DRSC02849	1.12e5	1.53e5	61995	59875	17005
CG15390	DRSC00404	1.29e5	1.22e5	83680	60680	8360
Ptp4E (Protein tyrosine phosphatase 4E)	DRSC18701	2.30e5 (active)	2.84e5	4.76e5	4.66e5	16805
Lsd-1 (Lipid storage droplet-1)	DRSC14236	1.92e5	1.77e5	2.70e5	2.62e5	15020
park + Targ3	DRSC11617	1.07e5	1.02e5	71725	85770	8035
Gr47b (Gustatory receptor 47b)	DRSC05275	2.05e5	2.34e5	2.53e5	2.83e5	23590
gro (groucho)	DRSC16962	2.89e5	3.58e5	3.18e5	3.33e5	18650
ppk20 (pickpocket 20)	DRSC16260	7780	6600	12050	10418	532
CG17234	DRSC00490	1.09e5	1.21e5	82010	54085	8392
CG10154	DRSC09707	1.28e5	1.28e5	1.76e5	1.24e5	8375
CG14778	DRSC17953	1.34e5	1.07e5	1.86e5	1.88e5	8095
Sce (Sex combs extra)	DRSC16825	1.32e5	1.36e5	1.98e5	1.75e5	7880
cmb (combover)	DRSC09790	82510	71430	98610	1.03e5	4630
Tsp42Ef (Tetraspanin 42Ef)	DRSC06191	2.18e5	1.79e5	2.86e5	2.36e5	16720
CG15831 (retired record)	DRSC20816	1.18e5	93515	1.42e5	1.35e5	10800
Kap-alpha3 (karyopherin alpha3)	DRSC16976	72585	78015	68720	76695	3220
Idgf3 (Imaginal disc growth factor 3)	DRSC03351	2.08e5	2.43e5	1.69e5	2.01e5	15480
